The list shows a part of the results.
Assays:
Assay in all cases: log2 fold change, soluble protein after heating vs DMSO (PISA); higher = thermal stabilisation; K562 lysate, 10 uM; active = over 0.2 and 3.5 SD of the protein, either way, in both replicates (recomputed)
erlotinib = compound: C#Cc1cccc(Nc2ncnc3cc(OCCOC)c(OCCOC)cc23)c1 [erlotinib]
Method in brief: (§1)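 The values are log-two fold changes in thermal stability compared with solvent controls and come from duplicates. They were obtained by TMTpro 16plex LC-MS/MS, with channel sums equalised, on the supernatant after 21,000xg for 90 min. That supernatant came from crude K562 extract at 1 mg/mL protein treated with 10 μM compound for 30 min, heated for 3 min across 48°C-58°C, pooled and brought to 0.5% NP-40 at 4°C.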

The chains behind the UniProt entries cited, without tags or fusion partners. Where a name states a change or a piece, a line headed by the entry shows the natural chain unless it says otherwise.
UniProt Q8IXQ3: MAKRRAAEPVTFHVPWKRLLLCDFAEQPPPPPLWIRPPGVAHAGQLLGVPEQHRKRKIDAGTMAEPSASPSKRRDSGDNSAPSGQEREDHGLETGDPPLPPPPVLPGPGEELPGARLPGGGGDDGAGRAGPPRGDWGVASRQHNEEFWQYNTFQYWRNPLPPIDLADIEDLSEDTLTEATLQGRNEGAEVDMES
UniProt Q96RR4, whole entry, looked up: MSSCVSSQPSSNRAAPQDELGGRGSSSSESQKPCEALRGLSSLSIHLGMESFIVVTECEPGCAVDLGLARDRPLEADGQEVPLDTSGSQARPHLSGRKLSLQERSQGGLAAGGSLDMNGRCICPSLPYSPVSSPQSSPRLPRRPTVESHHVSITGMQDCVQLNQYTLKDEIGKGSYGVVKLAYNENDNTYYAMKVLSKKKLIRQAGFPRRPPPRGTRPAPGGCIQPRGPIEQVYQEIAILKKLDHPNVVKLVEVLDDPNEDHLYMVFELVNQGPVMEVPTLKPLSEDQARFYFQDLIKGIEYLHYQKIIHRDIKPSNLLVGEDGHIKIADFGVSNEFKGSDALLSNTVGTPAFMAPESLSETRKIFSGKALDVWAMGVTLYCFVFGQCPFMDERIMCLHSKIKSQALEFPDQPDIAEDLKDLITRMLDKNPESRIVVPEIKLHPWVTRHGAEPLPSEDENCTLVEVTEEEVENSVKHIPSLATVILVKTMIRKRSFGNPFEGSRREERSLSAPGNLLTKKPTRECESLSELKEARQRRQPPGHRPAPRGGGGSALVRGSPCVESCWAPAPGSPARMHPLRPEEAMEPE
UniProt Q8WUR7: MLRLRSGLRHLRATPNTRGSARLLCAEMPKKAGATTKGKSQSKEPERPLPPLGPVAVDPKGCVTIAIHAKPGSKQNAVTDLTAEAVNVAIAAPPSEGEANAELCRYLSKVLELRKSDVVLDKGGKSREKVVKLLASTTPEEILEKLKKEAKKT
UniProt Q5BKX5: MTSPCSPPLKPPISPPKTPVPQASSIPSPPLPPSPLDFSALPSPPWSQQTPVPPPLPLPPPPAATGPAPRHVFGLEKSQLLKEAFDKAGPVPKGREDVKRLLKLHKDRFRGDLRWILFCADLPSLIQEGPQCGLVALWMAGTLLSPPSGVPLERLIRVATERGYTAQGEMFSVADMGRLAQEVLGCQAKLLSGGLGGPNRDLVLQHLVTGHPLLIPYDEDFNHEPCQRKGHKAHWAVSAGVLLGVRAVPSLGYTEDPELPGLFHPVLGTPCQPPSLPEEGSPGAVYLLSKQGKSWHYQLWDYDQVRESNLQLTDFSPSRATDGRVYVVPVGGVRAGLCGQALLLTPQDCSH
UniProt P07384: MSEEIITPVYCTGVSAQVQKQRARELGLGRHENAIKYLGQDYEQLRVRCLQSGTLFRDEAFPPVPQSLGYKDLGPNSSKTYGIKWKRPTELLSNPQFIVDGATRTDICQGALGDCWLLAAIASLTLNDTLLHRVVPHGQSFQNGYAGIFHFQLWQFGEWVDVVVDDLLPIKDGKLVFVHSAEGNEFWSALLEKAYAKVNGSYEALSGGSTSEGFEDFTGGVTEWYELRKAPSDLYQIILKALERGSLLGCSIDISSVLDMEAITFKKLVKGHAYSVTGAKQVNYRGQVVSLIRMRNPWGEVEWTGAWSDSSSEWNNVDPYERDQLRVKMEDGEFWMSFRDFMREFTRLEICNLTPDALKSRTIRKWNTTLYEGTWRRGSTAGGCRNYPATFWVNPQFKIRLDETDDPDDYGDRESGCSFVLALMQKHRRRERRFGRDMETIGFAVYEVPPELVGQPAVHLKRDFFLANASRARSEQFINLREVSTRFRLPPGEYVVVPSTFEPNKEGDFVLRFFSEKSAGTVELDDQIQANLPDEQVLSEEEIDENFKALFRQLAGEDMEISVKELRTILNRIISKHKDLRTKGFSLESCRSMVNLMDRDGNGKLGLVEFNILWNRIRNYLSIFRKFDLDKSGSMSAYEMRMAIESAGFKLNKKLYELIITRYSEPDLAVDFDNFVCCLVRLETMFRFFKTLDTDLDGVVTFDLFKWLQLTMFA
UniProt O43852: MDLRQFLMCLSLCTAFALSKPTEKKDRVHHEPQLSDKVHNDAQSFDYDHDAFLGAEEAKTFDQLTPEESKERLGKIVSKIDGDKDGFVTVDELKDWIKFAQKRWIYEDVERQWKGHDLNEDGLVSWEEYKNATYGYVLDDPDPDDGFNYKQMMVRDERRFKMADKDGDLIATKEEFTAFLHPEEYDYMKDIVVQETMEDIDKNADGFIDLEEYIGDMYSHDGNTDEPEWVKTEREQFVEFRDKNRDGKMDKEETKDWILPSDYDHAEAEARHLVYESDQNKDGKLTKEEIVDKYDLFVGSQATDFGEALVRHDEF
UniProt Q9BVC5: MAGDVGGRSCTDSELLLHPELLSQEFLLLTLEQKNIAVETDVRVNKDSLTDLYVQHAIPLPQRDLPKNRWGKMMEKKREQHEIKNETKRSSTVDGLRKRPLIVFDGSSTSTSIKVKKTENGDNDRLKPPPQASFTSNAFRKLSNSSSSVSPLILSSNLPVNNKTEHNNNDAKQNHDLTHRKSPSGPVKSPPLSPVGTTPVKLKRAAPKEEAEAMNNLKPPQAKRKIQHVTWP
UniProt Q6ZSJ8: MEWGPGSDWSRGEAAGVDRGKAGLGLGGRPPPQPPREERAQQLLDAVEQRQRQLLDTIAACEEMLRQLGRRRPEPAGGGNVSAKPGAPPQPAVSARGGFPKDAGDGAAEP
UniProt Q07021: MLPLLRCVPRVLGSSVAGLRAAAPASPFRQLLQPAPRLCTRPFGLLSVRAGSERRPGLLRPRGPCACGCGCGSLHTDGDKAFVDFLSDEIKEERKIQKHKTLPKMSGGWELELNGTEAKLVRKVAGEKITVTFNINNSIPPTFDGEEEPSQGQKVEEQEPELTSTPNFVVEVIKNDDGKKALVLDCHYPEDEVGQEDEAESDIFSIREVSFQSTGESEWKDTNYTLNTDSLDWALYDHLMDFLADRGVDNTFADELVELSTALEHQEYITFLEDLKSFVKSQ
UniProt Q6P1X6: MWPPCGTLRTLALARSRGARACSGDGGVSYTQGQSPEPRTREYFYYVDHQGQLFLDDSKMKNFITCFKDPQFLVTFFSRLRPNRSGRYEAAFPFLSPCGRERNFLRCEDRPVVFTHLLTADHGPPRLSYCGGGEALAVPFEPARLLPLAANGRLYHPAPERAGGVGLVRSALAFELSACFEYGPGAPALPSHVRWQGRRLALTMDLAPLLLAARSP
UniProt O14523: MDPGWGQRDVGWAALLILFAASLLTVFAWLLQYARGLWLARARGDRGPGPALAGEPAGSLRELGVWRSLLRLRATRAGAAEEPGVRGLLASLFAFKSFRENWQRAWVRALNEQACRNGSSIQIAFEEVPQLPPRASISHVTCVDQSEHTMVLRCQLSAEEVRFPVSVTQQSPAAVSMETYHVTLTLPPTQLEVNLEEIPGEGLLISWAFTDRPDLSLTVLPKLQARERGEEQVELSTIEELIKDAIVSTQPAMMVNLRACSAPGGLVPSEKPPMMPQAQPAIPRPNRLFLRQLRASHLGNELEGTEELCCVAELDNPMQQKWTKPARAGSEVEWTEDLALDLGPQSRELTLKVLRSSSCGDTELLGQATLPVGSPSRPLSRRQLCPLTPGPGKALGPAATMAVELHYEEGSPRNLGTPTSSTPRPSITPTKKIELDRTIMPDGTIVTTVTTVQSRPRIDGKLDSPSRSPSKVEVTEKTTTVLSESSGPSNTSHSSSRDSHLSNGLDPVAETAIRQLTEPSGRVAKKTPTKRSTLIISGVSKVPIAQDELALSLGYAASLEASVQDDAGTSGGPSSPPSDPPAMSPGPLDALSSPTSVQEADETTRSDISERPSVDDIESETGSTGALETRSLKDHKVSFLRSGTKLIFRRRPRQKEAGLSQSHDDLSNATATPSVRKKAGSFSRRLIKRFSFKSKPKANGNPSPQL
UniProt P27708: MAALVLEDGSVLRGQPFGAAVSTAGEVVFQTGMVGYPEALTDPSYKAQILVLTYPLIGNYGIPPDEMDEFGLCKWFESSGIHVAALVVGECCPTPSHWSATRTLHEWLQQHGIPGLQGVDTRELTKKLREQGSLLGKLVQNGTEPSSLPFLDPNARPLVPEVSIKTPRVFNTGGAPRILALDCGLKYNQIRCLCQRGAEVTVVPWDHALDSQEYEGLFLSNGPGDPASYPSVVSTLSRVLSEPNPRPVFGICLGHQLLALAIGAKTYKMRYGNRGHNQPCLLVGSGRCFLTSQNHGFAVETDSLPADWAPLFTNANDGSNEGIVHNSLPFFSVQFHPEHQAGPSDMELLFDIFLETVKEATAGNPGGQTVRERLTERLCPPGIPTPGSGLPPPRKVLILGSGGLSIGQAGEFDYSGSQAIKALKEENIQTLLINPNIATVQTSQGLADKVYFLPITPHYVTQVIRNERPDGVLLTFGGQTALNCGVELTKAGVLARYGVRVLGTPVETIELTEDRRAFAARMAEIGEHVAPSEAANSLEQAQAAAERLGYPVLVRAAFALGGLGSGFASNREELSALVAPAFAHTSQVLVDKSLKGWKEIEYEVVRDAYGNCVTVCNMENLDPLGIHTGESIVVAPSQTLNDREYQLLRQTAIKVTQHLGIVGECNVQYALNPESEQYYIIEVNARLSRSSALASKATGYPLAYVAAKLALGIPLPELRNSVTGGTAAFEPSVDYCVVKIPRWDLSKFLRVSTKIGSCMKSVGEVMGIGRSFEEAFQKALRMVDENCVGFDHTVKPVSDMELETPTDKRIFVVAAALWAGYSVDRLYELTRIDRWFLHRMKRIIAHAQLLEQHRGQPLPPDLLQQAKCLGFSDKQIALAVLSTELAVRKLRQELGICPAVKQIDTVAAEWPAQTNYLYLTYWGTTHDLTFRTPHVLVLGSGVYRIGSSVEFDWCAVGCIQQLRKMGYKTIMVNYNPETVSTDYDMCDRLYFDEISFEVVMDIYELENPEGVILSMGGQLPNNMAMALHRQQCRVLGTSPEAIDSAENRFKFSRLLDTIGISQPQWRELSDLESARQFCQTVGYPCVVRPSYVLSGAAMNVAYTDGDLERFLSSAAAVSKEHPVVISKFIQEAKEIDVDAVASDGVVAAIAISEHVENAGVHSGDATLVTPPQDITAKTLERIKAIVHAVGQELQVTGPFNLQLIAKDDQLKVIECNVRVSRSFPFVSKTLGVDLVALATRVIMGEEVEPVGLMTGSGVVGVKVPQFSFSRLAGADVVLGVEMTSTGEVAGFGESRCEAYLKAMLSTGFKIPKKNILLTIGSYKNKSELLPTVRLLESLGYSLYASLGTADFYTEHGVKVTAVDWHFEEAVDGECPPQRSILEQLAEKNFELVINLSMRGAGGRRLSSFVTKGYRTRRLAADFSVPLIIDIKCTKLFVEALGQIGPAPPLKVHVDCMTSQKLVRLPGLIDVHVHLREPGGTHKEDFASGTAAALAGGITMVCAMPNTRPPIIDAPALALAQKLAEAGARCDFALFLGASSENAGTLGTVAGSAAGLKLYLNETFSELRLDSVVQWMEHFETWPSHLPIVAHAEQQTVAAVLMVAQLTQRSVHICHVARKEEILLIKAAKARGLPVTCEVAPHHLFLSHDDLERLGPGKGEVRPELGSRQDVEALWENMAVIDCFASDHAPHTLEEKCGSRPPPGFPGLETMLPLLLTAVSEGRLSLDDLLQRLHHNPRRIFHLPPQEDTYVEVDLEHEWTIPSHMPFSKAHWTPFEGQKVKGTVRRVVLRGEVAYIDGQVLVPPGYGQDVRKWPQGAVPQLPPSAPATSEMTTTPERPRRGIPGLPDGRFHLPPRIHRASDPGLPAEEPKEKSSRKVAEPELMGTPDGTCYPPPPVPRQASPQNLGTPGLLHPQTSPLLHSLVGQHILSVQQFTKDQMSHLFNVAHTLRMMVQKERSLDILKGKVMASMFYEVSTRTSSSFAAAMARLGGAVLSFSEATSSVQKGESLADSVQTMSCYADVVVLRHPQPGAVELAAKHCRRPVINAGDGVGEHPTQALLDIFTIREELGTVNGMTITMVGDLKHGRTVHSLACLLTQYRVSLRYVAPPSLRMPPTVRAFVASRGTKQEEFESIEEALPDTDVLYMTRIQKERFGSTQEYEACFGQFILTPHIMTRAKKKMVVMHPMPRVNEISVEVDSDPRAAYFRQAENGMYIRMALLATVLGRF
UniProt Q8N1Q1: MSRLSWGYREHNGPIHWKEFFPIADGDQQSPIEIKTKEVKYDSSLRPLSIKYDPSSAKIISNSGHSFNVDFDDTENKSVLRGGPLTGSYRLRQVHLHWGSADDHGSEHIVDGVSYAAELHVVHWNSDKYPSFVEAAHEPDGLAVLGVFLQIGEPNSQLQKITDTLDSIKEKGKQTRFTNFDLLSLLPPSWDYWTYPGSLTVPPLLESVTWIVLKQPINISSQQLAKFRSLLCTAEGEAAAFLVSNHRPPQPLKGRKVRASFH

[1] = compound: C/C(=N\NC(=O)C1=CC(=CC=C1)S(=O)(=O)N2CCOCC2)/C3=C(C=CC(=C3)Cl)O
Method in brief: as §1

[2] = compound: C1=CC(=CC=C1C2=NC3=C(N2)C=C(C=C3)C(=O)N)OC4=CC=C(C=C4)Cl
Method in brief: as §1

[3] = compound: C1=CC2=C(C=CC(=C2)/C=C\3/C(=O)NC(=NCC4=CC=CS4)S3)N=C1
Method in brief: as §1

[4] = compound: C1=CC2=NC=CN=C2C=C1/C=C/3\C(=O)NC(=O)S3
Method in brief: as §1

[5] = compound: C1=CC=C(C=C1)C2=NC(=C(N2)C3=CC=NC=C3)C4=CC(=C(C=C4)Cl)O
Method in brief: as §1

[6] = compound: C1=CC=C2C(=C1)C3=NNC4=CC=CC(=C43)C2=O
Method in brief: as §1

[7] = compound: C1CCN(C1)C(=O)NC2=CC=CC(=C2)NC3=NC=C(C(=N3)NCCC4=CN=CN4)Br
Method in brief: as §1

[8] = compound: C1CN(CCC1(CC2=CC=C(C=C2)Cl)N)C3=NC=NC4=C3C=CN4
Method in brief: as §1

IRAK-1-4 Inhibitor I = compound: C1COCCN1CCN2C3=CC=CC=C3N=C2NC(=O)C4=CC(=CC=C4)[N+](=O)[O-] [IRAK-1-4 Inhibitor I]
Method in brief: as §1

ibrutinib = compound: C=CC(=O)N1CCC[C@@H](n2nc(-c3ccc(Oc4ccccc4)cc3)c3c(N)ncnc32)C1 [ibrutinib]
Method in brief: as §1

[9] = compound: CC(=O)c1cnc2ccc(-c3cc(Cl)c(O)c(Cl)c3)nc2c1N[C@H]1CC[C@H](CN(C)C)CC1
Method in brief: as §1

ralimetinib = compound: CC(C)(C)Cn1c(N)nc2ccc(-c3[nH]c(C(C)(C)C)nc3-c3ccc(F)cc3)nc21 [ralimetinib]
Method in brief: as §1

[10] = compound: CC(C)(O)CC(=O)NCCn1ccc2ncnc(Nc3ccc(Oc4cccc(C(F)(F)F)c4)c(Cl)c3)c21
Method in brief: as §1

[11] = compound: CC(C)C1=C2N=C(C=C(N2N=C1)NCC3=CC=CC=C3)NCCCCCCN
Method in brief: as §1

[12] = compound: CC1=C(C(CC(=O)N1)C2=CC=C(C=C2)C(F)(F)F)C(=O)NC3=C(C=C4C(=C3)C=NN4)F
Method in brief: as §1

[13] = compound: CC1=C(C2=C(C=C1)C(=O)C3=CC=CC=C3N2CCCN)C
Method in brief: as §1

[14] = compound: CC1=C(C=C(C=C1)NC(=O)C2=CC(=CC=C2)C(C)(C)C#N)NC3=CC4=C(C=C3)N=CN(C4=O)C
Method in brief: as §1

[15] = compound: CC1=C(C=C(C=C1)NC(=O)C2=CC(=CC=C2)N(C)C)NC(=O)C3=CC=C(C=C3)O
Method in brief: as §1

[16] = compound: CC1=CC=C(C=C1)SC2=C3C=C(SC3=CN=C2)C(=O)N
Method in brief: as §1

Target	log2 fold change (erlotinib)	log2 fold change [1]	log2 fold change [2]	log2 fold change [3]	log2 fold change [4]	log2 fold change [5]	log2 fold change [6]	log2 fold change [7]	log2 fold change [8]	log2 fold change (IRAK-1-4 Inhibitor I)	log2 fold change (ibrutinib)	log2 fold change [9]	log2 fold change (ralimetinib)	log2 fold change [10]	log2 fold change [11]	log2 fold change [12]	log2 fold change [13]	log2 fold change [14]	log2 fold change [15]	log2 fold change [16]
C9orf40 (UniProt Q8IXQ3)	inactive: -0.011	inactive: -0.688	inactive: -0.01	inactive: 0.035	inactive: 0.013	inactive: -0.108	inactive: 0.03	inactive: -0.028	inactive: 0.059	inactive: 0.109	inactive: 0.098	inactive: 0.001	inactive: -0.025	inactive: -0.006	inactive: -0.048	inactive: -0.123	inactive: -0.047	inactive: 0.004	inactive: -0.023	inactive: -0.045
CAMKK2 (UniProt Q96RR4)	inactive: -0.033	inactive: -0.028	inactive: -0.045	inactive: -0.057	inactive: -0.014	inactive: 0.005	inactive: 0.002	inactive: 0.135	inactive: 0.033	inactive: -0.027	inactive: 0.052	active: 0.231	inactive: 0.035	inactive: -0.005	inactive: 0.019	inactive: -0.011	inactive: -0.005	inactive: -0.031	inactive: 0.005	inactive: 0.014
C15orf40 (UniProt Q8WUR7)	inactive: 0.004	inactive: 0.011	inactive: -0.044	inactive: -0.1	inactive: -0.032	inactive: 0.071	inactive: -0.017	inactive: -0.01	inactive: -0.006	inactive: 0.003	inactive: 0.058	inactive: 0.037	inactive: 0.036	inactive: -0.035	inactive: 0.031	inactive: 0	inactive: -0.022	inactive: 0.041	inactive: -0.054	inactive: -0.048
C19orf54 (UniProt Q5BKX5)	inactive: -0.012	inactive: 0.042	inactive: 0.035	inactive: -0.025	inactive: 0.019	inactive: -0.004	inactive: 0.022	inactive: -0.012	inactive: -0.012	inactive: 0.054	inactive: 0.041	inactive: 0.003	inactive: -0.018	inactive: -0.055	inactive: 0.028	inactive: 0.012	inactive: 0.06	inactive: -0.041	inactive: 0.013	inactive: 0.063
CAPN1 (UniProt P07384)	inactive: -0.034	inactive: -0.037	inactive: 0.014	inactive: 0.025	inactive: -0.007	inactive: -0.016	inactive: 0.012	inactive: -0.054	inactive: -0.023	inactive: 0.014	inactive: 0.01	inactive: -0.002	inactive: 0.023	inactive: -0.005	inactive: 0.011	inactive: 0.007	inactive: -0.027	inactive: 0.02	inactive: -0.018	inactive: -0.018
CAPZA2 (UniProt P47755)	inactive: -0.009	inactive: 0.005	inactive: -0.013	inactive: -0.005	inactive: 0.01	inactive: -0.011	inactive: 0.015	inactive: 0.03	inactive: 0.014	inactive: 0.006	inactive: 0.003	inactive: 0.021	inactive: 0.034	inactive: 0.003	inactive: -0.015	inactive: -0.001	inactive: -0.037	inactive: 0.02	inactive: 0.005	inactive: -0.01
CAND2 (UniProt O75155)	inactive: 0.026	inactive: -0.003	inactive: 0.057	inactive: -0.008	inactive: 0.004	inactive: -0.004	inactive: -0.067	inactive: -0.025	inactive: 0.025	inactive: 0.005	inactive: -0.015	inactive: -0.009	inactive: -0.041	inactive: -0.048	inactive: -0.03	inactive: -0.005	inactive: -0.005	inactive: -0.008	inactive: 0.036	inactive: -0.009
BZW2 (UniProt Q9Y6E2)	inactive: -0.022	inactive: -0.011	inactive: -0.036	inactive: -0.011	inactive: 0.016	inactive: -0.023	inactive: -0.001	inactive: 0.021	inactive: -0.013	inactive: -0.004	inactive: -0.013	inactive: 0.014	inactive: 0.012	inactive: -0.012	inactive: -0.023	inactive: -0.004	inactive: 0.009	inactive: -0.019	inactive: -0.009	inactive: 0.005
CALU isoform 4 (UniProt O43852)	inactive: -0.044	inactive: 0.048	inactive: -0.012	inactive: -0.029	inactive: 0.018	inactive: 0.045	inactive: -0.032	inactive: 0.04	inactive: -0.017	inactive: 0.016	inactive: 0.047	inactive: 0.003	inactive: -0.04	inactive: 0.018	inactive: -0.039	inactive: -0.048	inactive: 0.032	inactive: 0.032	inactive: -0.038	inactive: -0.003
C2orf49 (UniProt Q9BVC5)	inactive: -0.001	inactive: 0.025	inactive: 0.019	inactive: 0.013	inactive: -0.025	inactive: 0.015	inactive: -0.028	inactive: -0.032	inactive: 0.035	inactive: 0.019	inactive: 0.038	inactive: -0.011	inactive: -0.013	inactive: -0.009	inactive: 0.014	inactive: 0.034	inactive: 0.005	inactive: 0.002	inactive: 0.011	inactive: 0.028
C1orf122 (UniProt Q6ZSJ8)	inactive: 0.038	inactive: -0.039	inactive: 0	inactive: 0.06	inactive: -0.149	inactive: 0.019	inactive: -0.063	inactive: 0.079	inactive: 0.062	inactive: 0.01	inactive: -0.014	inactive: -0.039	inactive: 0.026	inactive: -0.049	inactive: -0.01	inactive: -0.034	inactive: -0.056	inactive: 0.141	inactive: 0	inactive: -0.008
C1QBP (UniProt Q07021)	inactive: -0.017	inactive: -0.083	inactive: -0.002	inactive: 0.006	inactive: 0.007	inactive: 0.021	inactive: 0.005	inactive: -0.004	inactive: -0.019	inactive: 0.012	inactive: -0.012	inactive: 0.016	inactive: -0.04	inactive: -0.006	inactive: -0.005	inactive: 0.004	inactive: 0.012	inactive: -0.022	inactive: 0.01	inactive: -0.01
C8orf82 (UniProt Q6P1X6)	inactive: -0.042	inactive: 0.003	inactive: -0.023	inactive: 0.008	inactive: 0.028	inactive: 0.002	inactive: -0.077	inactive: 0.05	inactive: 0.026	inactive: -0.012	inactive: -0.003	inactive: -0.012	inactive: -0.017	inactive: -0.045	inactive: 0.006	inactive: -0.035	inactive: 0.008	inactive: 0.009	inactive: 0.009	inactive: 0.011
C2CD2L (UniProt O14523)	inactive: -0.037	inactive: 0.097	inactive: -0.019	inactive: 0.012	inactive: -0.054	inactive: -0.027	inactive: -0.077	inactive: -0.03	inactive: 0.08	inactive: 0.032	inactive: 0.04	inactive: 0.013	inactive: 0.017	inactive: -0.032	inactive: -0.007	inactive: -0.041	inactive: -0.155	inactive: 0.008	inactive: 0.011	inactive: -0.069
CAD (UniProt P27708)	inactive: 0.013	inactive: 0.003	inactive: -0.015	inactive: 0.032	inactive: 0.013	inactive: -0.006	inactive: -0.008	inactive: -0.002	inactive: 0.011	inactive: -0.004	inactive: -0.009	inactive: -0.016	inactive: 0.03	inactive: -0.002	inactive: 0.005	inactive: -0.005	inactive: 0.026	inactive: 0.009	inactive: 0.009	inactive: 0.018
CA13 (UniProt Q8N1Q1)	inactive: 0.057	inactive: 0.054	inactive: -0.038	inactive: -0.012	inactive: -0.052	inactive: -0.013	inactive: 0	inactive: -0.019	inactive: -0.026	inactive: 0.044	inactive: 0.084	inactive: 0.032	inactive: -0.044	inactive: 0.004	inactive: -0.047	inactive: -0.014	inactive: -0.011	inactive: 0.013	inactive: -0.096	inactive: -0.011

Four consecutive entries from above:
Target	log2 fold change (erlotinib)	log2 fold change [1]	log2 fold change [2]	log2 fold change [3]	log2 fold change [4]	log2 fold change [5]	log2 fold change [6]	log2 fold change [7]	log2 fold change [8]	log2 fold change (IRAK-1-4 Inhibitor I)	log2 fold change (ibrutinib)	log2 fold change [9]	log2 fold change (ralimetinib)	log2 fold change [10]	log2 fold change [11]	log2 fold change [12]	log2 fold change [13]	log2 fold change [14]	log2 fold change [15]	log2 fold change [16]
CAPN1 (UniProt P07384)	inactive: -0.034	inactive: -0.037	inactive: 0.014	inactive: 0.025	inactive: -0.007	inactive: -0.016	inactive: 0.012	inactive: -0.054	inactive: -0.023	inactive: 0.014	inactive: 0.01	inactive: -0.002	inactive: 0.023	inactive: -0.005	inactive: 0.011	inactive: 0.007	inactive: -0.027	inactive: 0.02	inactive: -0.018	inactive: -0.018
CAPZA2 (UniProt P47755)	inactive: -0.009	inactive: 0.005	inactive: -0.013	inactive: -0.005	inactive: 0.01	inactive: -0.011	inactive: 0.015	inactive: 0.03	inactive: 0.014	inactive: 0.006	inactive: 0.003	inactive: 0.021	inactive: 0.034	inactive: 0.003	inactive: -0.015	inactive: -0.001	inactive: -0.037	inactive: 0.02	inactive: 0.005	inactive: -0.01
CAND2 (UniProt O75155)	inactive: 0.026	inactive: -0.003	inactive: 0.057	inactive: -0.008	inactive: 0.004	inactive: -0.004	inactive: -0.067	inactive: -0.025	inactive: 0.025	inactive: 0.005	inactive: -0.015	inactive: -0.009	inactive: -0.041	inactive: -0.048	inactive: -0.03	inactive: -0.005	inactive: -0.005	inactive: -0.008	inactive: 0.036	inactive: -0.009
BZW2 (UniProt Q9Y6E2)	inactive: -0.022	inactive: -0.011	inactive: -0.036	inactive: -0.011	inactive: 0.016	inactive: -0.023	inactive: -0.001	inactive: 0.021	inactive: -0.013	inactive: -0.004	inactive: -0.013	inactive: 0.014	inactive: 0.012	inactive: -0.012	inactive: -0.023	inactive: -0.004	inactive: 0.009	inactive: -0.019	inactive: -0.009	inactive: 0.005

Reference: the supplement of paper PMC10849652
